Measured values from article PMC7156110, “The MAPK substrate MASS proteins regulate stomatal development in Arabidopsis” (PLoS Genetics, 2020).
Residue numbers refer to the chain shown, from its start. No constants are given. Whether binding was seen depends on the method and setting. For some of these results: In cells and extracts the contact can be indirect. Some results given as binding are weak or reduced against the parent protein; the word gives no strength. For some of these results: Where a sequence is shown, tags or fusion partners need not be part of it. Values belong to the binder of their own block, whether it stands above or below them.

Columns and labels:
[1] = molecular target: T1, YDA^KI (kinase-inactive YDA, K429R), split-YFP fusion for BiFC (Arabidopsis thaliana) (UniProt Q9CAD5); experiment: split reporter; BiFC with split YFP in tobacco leaf epidermal cells; signal at the plasma membrane
T1 sequence: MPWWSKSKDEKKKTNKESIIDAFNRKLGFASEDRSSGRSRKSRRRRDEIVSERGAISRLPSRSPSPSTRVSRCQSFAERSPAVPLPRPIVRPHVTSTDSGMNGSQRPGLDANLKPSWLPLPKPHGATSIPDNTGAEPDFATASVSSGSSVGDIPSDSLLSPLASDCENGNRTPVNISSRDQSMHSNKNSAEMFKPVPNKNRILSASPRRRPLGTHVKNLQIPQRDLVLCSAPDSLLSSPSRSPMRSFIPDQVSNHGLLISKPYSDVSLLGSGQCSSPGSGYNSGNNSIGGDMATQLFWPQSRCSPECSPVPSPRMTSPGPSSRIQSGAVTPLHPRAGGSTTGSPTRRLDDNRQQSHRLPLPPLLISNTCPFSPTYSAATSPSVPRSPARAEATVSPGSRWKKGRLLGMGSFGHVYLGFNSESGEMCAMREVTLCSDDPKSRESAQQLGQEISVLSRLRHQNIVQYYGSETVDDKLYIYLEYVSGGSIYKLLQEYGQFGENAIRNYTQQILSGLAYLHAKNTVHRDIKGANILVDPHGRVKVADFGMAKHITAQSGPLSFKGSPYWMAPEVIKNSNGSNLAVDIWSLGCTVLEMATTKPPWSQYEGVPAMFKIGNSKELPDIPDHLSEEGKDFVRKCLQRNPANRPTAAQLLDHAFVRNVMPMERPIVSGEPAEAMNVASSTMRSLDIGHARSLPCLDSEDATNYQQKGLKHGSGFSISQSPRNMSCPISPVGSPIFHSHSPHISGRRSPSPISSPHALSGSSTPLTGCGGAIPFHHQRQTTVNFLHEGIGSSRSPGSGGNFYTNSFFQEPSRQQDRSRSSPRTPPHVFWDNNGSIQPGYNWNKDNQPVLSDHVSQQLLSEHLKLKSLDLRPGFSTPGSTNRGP

[2] = molecular target: T2, MASS2 recombinant protein of the BLI assay (Arabidopsis thaliana) (UniProt Q9XI29); experiment: BLI; BLItz system; recombinant protein loaded onto Ni-NTA biosensors, dipped in buffer with purified YDA protein; 50 mM Tris pH 8.0, 150 mM NaCl; room temperature; both purified
T2 sequence: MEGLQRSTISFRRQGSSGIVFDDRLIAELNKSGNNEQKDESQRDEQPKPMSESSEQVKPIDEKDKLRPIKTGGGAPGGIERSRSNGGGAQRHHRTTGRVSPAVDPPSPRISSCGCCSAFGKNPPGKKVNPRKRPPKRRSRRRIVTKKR

[3] = molecular target: T3, YDA^KI-YFP (kinase-inactive YDA, K429R) (Arabidopsis thaliana) (UniProt Q9CAD5); experiment: co-IP; 35S::4xMyc-MASS2g and 35S::YDA^KI-YFP co-infiltrated into N. benthamiana leaves; GFP-Trap Agarose, 3 hr at 4°C; blots with anti-Myc and anti-GFP
T3 sequence: T1 sequence

binding [1]: binds
B1: MASS1, split-YFP fusion for BiFC (protein, UniProt Q9SSC1 1-138)
chain: MAGLQRSTISFRRQGSSGIVWDDRLIAELSQQAANDRKGETLQQDEQAKLITSEVQDQTTKPIAGEGLKPIRTDGGMERSRSNGGGAIRHHRNTGRVSPAVDPPSPRLSAFGCCSAFGKKQPGKKVNQRKRPAKRRSR

binding [2]: binds
B2: YDA, purified protein of the BLI assay (enzyme, UniProt Q9CAD5 1-883)
chain: T1 sequence with R429K

binding [1]: binds
B3: MASS2, split-YFP fusion for BiFC (protein, UniProt Q9XI29 1-148)
chain: T2 sequence

binding [3]: binds
B4: 4xMyc-MASS2g (MASS2 expressed from its genomic region) (protein, UniProt Q9XI29 1-148)
chain: T2 sequence
